From US20100286247A1, “Methods of Protection from Oxidative Stress” (Trustees of Boston University, priority 2005, published 2010)

Test system: intracellular ROS in normal newborn human dermal fibroblasts
Test: Dichlorofluorescein diacetate (DCF) assay of intracellular ROS, FACScan
Format: cell-based
Protocol: Normal newborn human dermal fibroblasts were cultured from foreskin specimens into DMEM supplemented with 10% CS as described above. Due to the large number of cells needed for time course experiments, and to minimize donor variability, in dichlorofluorescein diacetate FACS experiments cells from three different donors were combined.
Purified lyophilized oligonucleotides were obtained and prepared for cell treatment as described above. All treatments involved a single stimulation with T-oligo, after which cells were harvested at various times without medium changes or addition of more T-oligo. Treatment doses were 100 μM pTT and 40 μM TO except in dose-response experiments; these concentrations were determined in previous experiments to be optimal for measuring DNA damage responses using these T-oligos.^142,150,228
Complementary and scrambled oligonucleotides were chosen for each T-oligo. pAA and pCC were used as controls for pTT, and the complementary 11-base pCTAACCCTAAC (TOC1, SEQ ID NO: 22) and a scrambled sequence pGATCGATCGAT (TOC2, SEQ ID NO: 23) were used as controls for the T-oligo TO.
H2DCFDA stock solution (1 mg/ml) was thawed and diluted in Hanks' Balanced Salt Solution, 1× liquid without phenol red (GIBCO Invitrogen, Carlsbad, Calif.), to a working concentration of 100 μM immediately before use. H2DCFDA is converted by intracellular esterases to dichlorofiuorescein (DCF). When oxidized by intracellular ROS, it will fluoresce at 530 nm when excited by 480 nm light. […] All work involving DCF was conducted in minimal room light. Peaks on FACScan plots that shift to the right indicate greater fluorescence and increased ROS levels. For NADPH oxidase inhibitor studies using DPI,^237,239 the DPI stock solution was added directly to DCF treatment solution to achieve a final DPI treatment concentration of 50 μM.
Hydrogen peroxide positive controls were used to rule out saturation of the DCF probe in the T-oligo dose response experiments. Fibroblasts were exposed to 1 mM, 5 mM and 10 mM H2O2 solutions in PBS for 15 minutes following DCF incubation for 30 minutes, harvested and analyzed as described above.
The horseradish peroxidase assay data was analyzed by one-way ANOVA. DCF assay FACScan results were analyzed using Cellquest software (Becton-Dickinson, Calif.). All peak positions on x-axis of the fluorescence histogram plot were determined visually (using the software) and recorded as a number. Peak position values were then compared using one-way ANOVA.

## 5′-phosphorylated thymidine dinucleotides [pTT]
100 μM pTT vs 40 μM TO
  ROS measured earlier than with TO: up to 20 hours
FIG. 14 donor cells, 100 μM pTT, 40 μM TO
  time measurable ROS stimulation starts: 36 h
FIG. 15, three experiments, 100 μM pTT
  earliest time ROS levels increased: 16 h
FIG. 16 representative time course, donor variability
  time of measurable ROS stimulation: 16 h
